PubChem BioAssay AID504764 – Drosophila RNAi Screening Center | 2011

Purpose: 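Knock-downs that raise or lower a Notch target reporter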 (primary screen)
System: Drosophila Kc167 cells
Reagent: long dsRNA against Drosophila genes
Time to read-out: about 5 days (4 days dsRNA, then 24 h after transfection)
Challenge: transfection of constitutively active membrane-tethered Notch lacking the extracellular domain, read 24 h later
Measurement: 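Firefly luciferase from an E(spl)m3 reporter with active Notch, plus control-promoter and uninduced reporter wells for normalisation; unnormalised counts, duplicate wells a and b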
Scale: induced reporter light, run 1, well a and induced reporter light, run 1, well b: higher = more light from the Notch target reporter with active Notch; control promoter light, run 1, well a and control promoter light, run 1, well b: higher = more light from the viral control promoter (cell number, transfection, viability); uninduced reporter light, run 1, well a: higher = more light from the Notch target reporter without active Notch
Rule for the call: 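Wells with low control signal or poorly matching duplicates excluded; duplicates averaged; per source plate, z beyond ±2 for induced/control log2 ratio or beyond ±1.8 for induced/uninduced marks a hit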
Calls: active = modifier hit (raised or lowered Notch signal); inactive = not a hit
In all, the deposit lists about 22,000 reagents; this is an unselected part of those with a known target gene and a result. Over the whole deposit, 403 (1.9%) got an active call. 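Unnormalised raw counts per well; ratio z-scores behind the hit calls and whether each hit raises or lowers signal are not deposited.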 The numbers tell different reagents against one gene apart. Not given: the amount of reagent.

For Takl2 (GeneID 42692), the values are induced reporter light, run 1, well a = 1.86e5; induced reporter light, run 1, well b = 1.78e5; control promoter light, run 1, well a = 1.83e5; control promoter light, run 1, well b = 1.99e5; uninduced reporter light, run 1, well a = 12692; inactive.
With knock-down of CG18585 (GeneID 34041), the record shows induced reporter light, run 1, well a = 2.16e5; induced reporter light, run 1, well b = 1.80e5; control promoter light, run 1, well a = 1.93e5; control promoter light, run 1, well b = 1.89e5; uninduced reporter light, run 1, well a = 17130; inactive.
Depletion of CG3600 (retired record) (GeneID 31161) gave: induced reporter light, run 1, well a = 92330; induced reporter light, run 1, well b = 89790; control promoter light, run 1, well a = 1.39e5; control promoter light, run 1, well b = 1.08e5; uninduced reporter light, run 1, well a = 8520; inactive.
alphaTub84B (GeneID 40848) gave induced reporter light, run 1, well a = 29015; induced reporter light, run 1, well b = 23200; control promoter light, run 1, well a = 25400; control promoter light, run 1, well b = 23555; uninduced reporter light, run 1, well a = 2910; inactive.
ND-13A (GeneID 33744) scored induced reporter light, run 1, well a = 1.01e5; induced reporter light, run 1, well b = 1.08e5; control promoter light, run 1, well a = 1.64e5; control promoter light, run 1, well b = 1.23e5; uninduced reporter light, run 1, well a = 9035; inactive.

Part of the list above, showing only “control promoter light, run 1, well b”:
Takl2 (GeneID 42692) = 1.99e5
CG18585 (GeneID 34041) = 1.89e5

The results go on:
Depletion of COX3 (retired record) (GeneID 192471) resulted in: induced reporter light, run 1, well a = 91650; induced reporter light, run 1, well b = 1.11e5; control promoter light, run 1, well a = 1.17e5; control promoter light, run 1, well b = 1.35e5; uninduced reporter light, run 1, well a = 11970; inactive.
Against Obp28a (GeneID 34031), the entry reads induced reporter light, run 1, well a = 1.51e5; induced reporter light, run 1, well b = 1.23e5; control promoter light, run 1, well a = 2.41e5; control promoter light, run 1, well b = 2.00e5; uninduced reporter light, run 1, well a = 9195; active.
Against Rpn10 (GeneID 40388), the values are induced reporter light, run 1, well a = 1.22e5; induced reporter light, run 1, well b = 85120; control promoter light, run 1, well a = 93455; control promoter light, run 1, well b = 78165; uninduced reporter light, run 1, well a = 7920; inactive.
Depletion of AttB (GeneID 36637) gave: induced reporter light, run 1, well a = 79625; induced reporter light, run 1, well b = 84025; control promoter light, run 1, well a = 1.08e5; control promoter light, run 1, well b = 1.05e5; uninduced reporter light, run 1, well a = 8615; inactive.
After knock-down of CG32568 (GeneID 32659) the results were induced reporter light, run 1, well a = 1.08e5; induced reporter light, run 1, well b = 85970; control promoter light, run 1, well a = 98005; control promoter light, run 1, well b = 90910; uninduced reporter light, run 1, well a = 12055; inactive.
Eip63F-1 (GeneID 47878) #1 scored induced reporter light, run 1, well a = 2.06e5; induced reporter light, run 1, well b = 1.95e5; control promoter light, run 1, well a = 1.90e5; control promoter light, run 1, well b = 1.76e5; uninduced reporter light, run 1, well a = 11885; inactive.
With knock-down of Eip63F-1 (GeneID 47878) #2, the record shows induced reporter light, run 1, well a = 99950; induced reporter light, run 1, well b = 93775; control promoter light, run 1, well a = 1.46e5; control promoter light, run 1, well b = 1.74e5; uninduced reporter light, run 1, well a = 7160; inactive.
